Measured values reported in paper PMC7858071.
These are yes or no findings as the source states them, for the method shown. Binding calls can cover weak binding; strength is not graded here.

Legend:
[1] = target: T18-MorA (P. aeruginosa PAO1) (UniProt Q9HVI8); test: two-hybrid; modified BACTH in E. coli BTH101, X-Gal agar, 30°C; untagged PelG alone coexpressed from pBADGr (0.5% arabinose)
[2] = target: T18-MorA (P. aeruginosa PAO1) (UniProt Q9HVI8); test: two-hybrid; modified BACTH in E. coli BTH101, X-Gal agar, 30°C; untagged PelE alone coexpressed from pBADGr (0.5% arabinose)
[3] = target: T18-MorA (P. aeruginosa PAO1) (UniProt Q9HVI8); test: two-hybrid; BACTH in E. coli BTH101, N-terminal T18 and T25 fusions, LB agar with IPTG and X-Gal, 30°C, 24 h; no PelE or PelG coexpressed (empty pBADGr vector control)
[4] = target: T18-MorA (P. aeruginosa PAO1) (UniProt Q9HVI8); test: two-hybrid; modified BACTH in E. coli BTH101, X-Gal agar, 30°C; untagged PelE and PelG both coexpressed from pBADGr (0.5% arabinose)

B1: T25-PelD (protein, UniProt Q9HZE7 1-455)
chain: MSAHKDFTLAPRASGSVSWVETLVISALALGLGWWFSPDDPLQVNATFPWVILAPLLLGMRYGFVRGLASAALLVAALFAFRARGVEAYAQVPAAFIVGVLLCAMLVGEFRDIWERRLERLELANEYRQLRLDEFTRAHHILRISHDRLEQRVAGNDQSLRSSLLGLRQLLRELPGDEAPLDALAETVLALLAQYGSLRIAGLYRVRYDRTPEPQPLATLGEMPALDADDLLVRTCLERGELVSVRQELLERGEQRAHSALQVCVPLVDTDGRILALLAVEQMPFFVFNERTFSLLAILAGHIADLLQSDRRALQLADIDAQRFSQYLKRSLLDARDHGLPACLYAFELTDARYGEEVQRLLEGSQRGLDVQLRLRNDEGRRVLLVLLPLTSAEGSQGYLQRLRILFAERFGQARELESLGVRIRQYELDAGNDRQALGHFLFNECGLNDQQVAI
binding [1]: binds weakly | binding [2]: binds weakly | binding [3]: binds weakly | binding [4]: binds
